From article PMC8104946 come the findings set out here.

Results are given in words; binding and its absence hold for the method and conditions named. In cells and extracts the contact can be indirect. Binding can be weak; no strength is given. Tags and fused reporters may be left off the sequences shown.

The experiment deals with T1, CTPS-HA (Drosophila) (UniProt Q9VUL1).
T1 sequence: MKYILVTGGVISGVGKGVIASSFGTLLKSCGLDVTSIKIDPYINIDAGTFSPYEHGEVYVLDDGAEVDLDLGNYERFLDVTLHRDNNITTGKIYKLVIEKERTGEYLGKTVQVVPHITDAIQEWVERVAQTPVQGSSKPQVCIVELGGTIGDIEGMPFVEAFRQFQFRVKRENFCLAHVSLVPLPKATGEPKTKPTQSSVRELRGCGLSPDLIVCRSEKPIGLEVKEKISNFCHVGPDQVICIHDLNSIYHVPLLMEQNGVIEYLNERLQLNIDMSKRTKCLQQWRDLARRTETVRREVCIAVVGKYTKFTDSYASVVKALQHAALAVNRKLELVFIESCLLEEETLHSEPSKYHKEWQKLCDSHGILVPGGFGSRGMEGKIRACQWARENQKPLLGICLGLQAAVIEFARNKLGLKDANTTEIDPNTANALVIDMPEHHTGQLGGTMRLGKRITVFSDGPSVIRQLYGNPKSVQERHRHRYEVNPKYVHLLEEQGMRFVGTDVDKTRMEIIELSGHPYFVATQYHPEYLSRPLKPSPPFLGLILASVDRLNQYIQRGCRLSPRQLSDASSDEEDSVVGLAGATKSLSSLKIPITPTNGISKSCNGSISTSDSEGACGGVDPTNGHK
In words: co-IP; S2 cells 24 hours after transfection with CTPS-HA-T2A-Catsup-V5 or CTPS-HA-T2A-Pdcd4-V5; lysate on anti-HA magnetic beads or IgG bound Protein A/G magnetic beads overnight at 4 °C; blot with anti-V5.

Pdcd4-V5 (Drosophila): the binding result is “binds”.
